Results deposited as PubChem BioAssay AID652243 (Drosophila RNAi Screening Center, 2013).
The deposit covers about 24,000 reagents; shown is a random part of those that have a named target and a result. Of all reagents, 246 (1%) are marked active. 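Plates not normalised; calls are printed but the firefly/Renilla ratio behind them is not deposited; fold cut for lowering reported inconsistently.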 Raw values vary from plate to plate and are shown uncorrected. Names joined by + are all predicted targets of the reagent. Not stated in the record: the amount of reagent.

Screen: 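Knock-downs that decrease or increase androgen receptor reporter signal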 (primary screen)
System: Drosophila S2R+ cells
Reagent: long dsRNA against Drosophila genes
Duration: 72 h (48 h, then 24 h hormone)
Treatment: synthetic androgen R1881 at 10 nM for 24 h
Read-out: 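Per-well raw luminescence of the androgen-driven firefly reporter and of the Renilla control, two replicates each, without normalisation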
Reading the numbers: firefly reporter light: higher = more light from androgen-responsive reporter; Renilla control light: higher = more constitutive control signal (cell number, transfection)
Rule for the call: 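Across duplicate plates, a knock-down whose log firefly/Renilla ratio shifted a set fold down or up from the GFP/LacZ control mean was a hit; the downward cut appears as both 1.5 and 3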
Calls: active = hit: reporter lowered or raised; inactive = no hit

| Gene | DRSC id | firefly reporter light, replicate 1 | firefly reporter light, replicate 2 | Renilla control light, replicate 1 | Renilla control light, replicate 2 | Call |
| --- | --- | --- | --- | --- | --- | --- |
| DJ-1alpha | DRSC07005 | 78251 | 91079 | 2.08e6 | 2.08e6 | inactive |
| Ltn1 (Listerin E3 ubiquitin protein ligase 1) | DRSC11056 | 12643 | 18034 | 2.64e5 | 1.72e5 | inactive |
| Ltn1 (Listerin E3 ubiquitin protein ligase 1) | DRSC11058 | 2.86e5 | 1.95e5 | 2.67e6 | 2.74e6 | inactive |
| CG4074 | DRSC11752 | 1.58e5 | 1.61e5 | 1.51e6 | 1.56e6 | inactive |
| CG4074 | DRSC29915 | 6.23e5 | 4.17e5 | 1.34e6 | 1.51e6 | inactive |
| CG7903 | DRSC16338 | 2.50e5 | 2.48e5 | 1.86e6 | 3.10e6 | inactive |
| CG7903 | DRSC29953 | 4.93e5 | 5.09e5 | 1.32e6 | 1.27e6 | inactive |
| r-cup (ryder cup) | DRSC20475 | 1.56e5 | 1.44e5 | 6.38e5 | 4.55e5 | inactive |
| Nxf3 (Nuclear export factor 3) | DRSC21749 | 3.47e5 | 4.62e5 | 1.13e6 | 2.46e6 | inactive |
| PolA1 (DNA polymerase alpha subunit 1) | DRSC16640 | 69623 | 77183 | 5.31e5 | 5.79e5 | inactive |
| PolA1 (DNA polymerase alpha subunit 1) | DRSC27879 | 6.85e5 | 4.21e5 | 1.32e6 | 8.24e5 | inactive |
| Gr22c (Gustatory receptor 22c) | DRSC22081 | 6.96e5 | 5.97e5 | 2.40e6 | 1.87e6 | inactive |
| Gr22c (Gustatory receptor 22c) | DRSC29715 | 9.84e5 | 6.44e5 | 1.57e6 | 1.19e6 | inactive |
| Lint-1 + rtv | DRSC19541 | 1.28e5 | 1.48e5 | 9.50e5 | 7.32e5 | inactive |
| Shawn + Tyler | DRSC19564 | 54880 | 79259 | 5.00e5 | 5.29e5 | inactive |
| Shawn + Tyler | DRSC19565 | 68971 | 66308 | 2.14e5 | 2.05e5 | inactive |
| CG8319 | DRSC16407 | 52789 | 1.06e5 | 1.75e6 | 1.80e6 | inactive |
| CG8319 | DRSC24607 | 5.73e5 | 7.71e5 | 9.21e5 | 1.05e6 | inactive |
| Tcs4 (Threonyl-carbamoyl synthesis 4) | DRSC19587 | 1.35e5 | 61283 | 8.88e5 | 8.59e5 | inactive |
| Tcs4 (Threonyl-carbamoyl synthesis 4) | DRSC28855 | 4.27e5 | 2.80e5 | 9.86e5 | 7.39e5 | inactive |
| pon (partner of numb) | DRSC18823 | 2.88e5 | 2.13e5 | 2.64e6 | 2.29e6 | inactive |
| Rbp4 (RNA-binding protein 4) | DRSC16818 | 2.14e5 | 1.19e5 | 2.51e6 | 1.62e6 | inactive |
| Rbp4 (RNA-binding protein 4) | DRSC27818 | 6.12e5 | 5.24e5 | 6.84e5 | 8.35e5 | inactive |
| Cyp4d1 (Cytochrome P450 4d1) | DRSC17694 | 7.73e5 | 6.14e5 | 8.90e5 | 7.75e5 | inactive |
| Cyp4d1 (Cytochrome P450 4d1) | DRSC18456 | 5.29e5 | 4.38e5 | 5.03e6 | 3.36e6 | inactive |
| Cyp4d1 (Cytochrome P450 4d1) | DRSC23948 | 4.60e5 | 3.87e5 | 4.07e5 | 3.89e5 | inactive |
| CYLD (Cylindromatosis) | DRSC02870 | 2.57e5 | 2.78e5 | 1.36e6 | 1.80e6 | inactive |
| CG30053 | DRSC07260 | 3.74e5 | 2.69e5 | 2.10e5 | 2.27e5 | inactive |
| CG1703 | DRSC19764 | 1.34e5 | 1.17e5 | 5.53e5 | 6.90e5 | inactive |
| Dip-B (Dipeptidase B) | DRSC16466 | 1.08e5 | 93494 | 9.54e5 | 9.42e5 | inactive |
| Dip-B (Dipeptidase B) | DRSC25975 | 4.23e5 | 3.72e5 | 8.17e5 | 6.81e5 | inactive |
| CG11808 | DRSC06088 | 6.64e5 | 7.89e5 | 1.02e6 | 1.19e6 | inactive |
| CG11808 | DRSC27380 | 4.01e5 | 3.27e5 | 7.72e5 | 7.69e5 | inactive |
| CG3630 | DRSC18499 | 63906 | 70824 | 5.76e5 | 4.88e5 | inactive |
| CG3630 | DRSC28903 | 3.69e5 | 3.56e5 | 9.80e5 | 1.20e6 | inactive |
| Rab9Db + Rab9D + Rab9Fa + 1 more | DRSC17662 | 2.21e6 | 7.92e5 | 2.68e6 | 1.14e6 | inactive |
| grp (grapes) | DRSC37018 | – | – | – | – | inactive |
| CG14071 | DRSC02374 | 2.54e5 | 2.54e5 | 1.76e6 | 1.35e6 | inactive |
| CG14391 | DRSC14850 | 43038 | 57240 | 9.65e5 | 1.54e6 | inactive |
| CG14391 | DRSC28373 | 3.85e5 | 6.29e5 | 8.51e5 | 1.16e6 | inactive |
